In US10370644B2, “Method for making human pluripotent suspension cultures and cells derived therefrom” (Janssen Biotech, Inc., priority 2012, dated 2019):
Some of these results come from one statement about several compounds together.

System: Clusters from pluripotent human embryonic stem cell line H1 (NIH code: WA01)
Test: EdU incorporation and cell cycle stage (G0/G1, S, G2/M) by flow cytometry during definitive endoderm differentiation
Type: cell-based
Method: Clusters from pluripotent human embryonic stem cell line H1 (NIH code: WA01) were seeded at 0.5×10^6 cells/ml in Erlenmeyer shaker flasks in MCDB-131 medium containing […] sodium bicarbonate and 5.5 mM glucose (Catalog #A13051 DJ, Invitrogen, CA), which was supplemented with 2% fatty acid free BSA (Catalog #68700, Proliant, Iowa), 1× GlutaMAX™ (Catalog #35050-079, Invitrogen, CA), an additional 2.5 mM glucose (Catalog #G8769, Sigma) and ITS-X at 1:50,000 stock concentration (Catalog #51500056, Invitrogen, CA). MCDB-131 medium supplemented in this manner will be referred to as stage 1 basal medium or “Neat” medium for the purposes of this example. The GSK3B inhibitor, 14-Prop-2-en-1-yl-3,5,7,14,17,23,27-heptaazatetracyclo[19.3.1.1-2,6˜.1˜8,12˜]heptacosa-1(25),2(27),3,5,8(26),9,11,21,23-nonaen-16-one, U.S. patent application Ser. No. 12/494,789; incorporated herein by reference in its entirety will be referred to as “MCX”.
Clusters were treated on the first day of differentiation with one of six conditions: (1) Neat, (2) 3 μM MCX plus 100 ng/ml GDF-8 (Catalog #120-00, Peprotech), (3) 3 μM MCX only, (4) 100 ng/ml GDF-8 only, (5) 20 ng/ml WNT-3A (Catalog #1324-WN-002, R&D Systems, MN) plus 100 ng/ml Activin A (Catalog #338-AC, R&D Systems, MN), or (6) 20 ng/ml WNT-3A only.
Media in each of the conditions was changed at 24 and 48 hours after the initiation of differentiation. […]
One hour prior to initiation of differentiation, and 5, 23, 29, 47, or 71 hours after the initiation of differentiation (referred to as “Time 0”), suspension samples were transferred to a non-tissue culture treated six well dish and incubated with EdU (Click-iT® EdU Kit, Life Technologies Corporation, Carlsbad, Calif.) for one hour. The EdU incubated cells were then assessed by flow cytometry at times 0, 6, 24, 30, 48, or 72 hours after initiation of differentiation to measure the percentage of cells in G0/G1, S, or G2/M stages of the cell cycle (FIGS. 81-87).

Compound: C=CCN1CC(=O)NCCCc2cncc(c2)-c2ncnc(n2)Nc2cccc(c2)C1 [MCX, 14-Prop-2-en-1-yl-3,5,7,14,17,23,27-heptaazatetracyclo[19.3.1.1˜2,6-˜0.1˜8,12.˜]heptacosa-1(25),2(27),3,5,8(26),9,11,21,23-non-aen-16-one]
- more cells in the S phase of cell cycle compared with WNT3A+Activin A, GDF8, WNT-3A or neat medium (30 and 48 hours after time 0): 15-33%
- fewer cells in G0/G1 as compared to WNT-3A+Activin A, GDF8, WNT-3A or neat medium (30 hours after time 0): 43-45%
- cells in G0/G1 of the cell cycle (48 hours after initiation of differentiation): 71.9-75.5%
